Library screen at single concentrations

Measurements from “University of Dundee, Small-Polar-MMV Screening Library” (2021), ChEMBL document CHEMBL3988442.

The filed quantity is “Percent Effect” (%). The record does not define 0% and 100%; most values in the screen are far below 50% and negative numbers occur (in some assays of this library far below -100). The compounds are a random part of those screened. A dash means the value is not listed here; it may have been measured.

T. brucei: 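Whole-parasite assay of Trypanosoma brucei over 72 hours; the read-out is not stated. Compounds at 30 µM. Higher reads as stronger inhibition (inferred: compounds with an IC50 in retests scored well above the rest). Values scatter widely below zero; nearly all retest evidence comes from the higher of the two concentrations used. Size under these conditions: about 64,000 compounds, about 940 of them at 50% or above in at least one test.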
Toxoplasma: 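Assay of Toxoplasma gondii numbers, read through their beta-galactosidase reporter with a colour substrate. Concentration: 10 µM. The record gives no direction; the compounds picked for IC50 retests had high values, so higher reads as fewer parasites. Of about 67,000 compounds tested this way, about 260 (0.38%) reached 50% or more in at least one test.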

| SMILES | T. brucei | Toxoplasma |
|---|---|---|
| `CN(C)c1ccccc1C(=O)N1CCCC(c2cccc(C(=O)O)c2)C1` (stereo not given) | -40.82% | -8.529% |
| `O=C(NCCN1CCCCCC1=O)c1ccn(-c2ccc(F)cc2)n1` | -26.45% | -0.2872% |
| `O=C(O)C(F)(F)F.O=C(O)C(F)(F)F.[H][C@@]12CCCO[C@]1([H])[C@H](Oc1ccccn1)CN2c1nnc(C)s1` | -19.16% | -6.817% |
| `COCC(=O)N1CC[C@@H](O)[C@@H]1Cc1ccccc1` | 12.34% | 5.156% |
| `O=C(O)C(F)(F)F.O=C(O)C(F)(F)F.[H][C@]12CCC[C@@H](CNc3ncccn3)[C@@]1([H])CN(CCOC)C2` | -48.89% | -21.81% |
| `[H][C@@]12CS(=O)(=O)C[C@]1([H])N(Cc1ccncc1)CCN2CCOC` | 8.306% | 0.7966% |
| `CNC(=O)c1nc(CC(=O)Nc2ccc3cc[nH]c3c2)no1` | 5.404% | 10.87% |
| `NC(=O)c1csc(C(=O)N2CCCCC2Cn2cccn2)c1` (stereo not given) | 7.035% | 6.57% |
| `O=C(Cc1ccon1)N1CCN(c2ccncc2Cl)CC1` | 3.781% | 2.841% |
| `CC(C)c1noc(CN2CCN(C(=O)OC(C)(C)C)C(C)C2)n1` (stereo not given) | -13.16% | 2.524% |
| `COc1cc(C(=O)N2CCCC2c2noc(C(C)C)n2)on1` (stereo not given) | - | -2.715% |
| `COc1cc(OC)cc(-n2ccnc2-c2cc3n(n2)CCNC3)c1` | -5.419% | 7.956% |
| `O=C(CO)N1CC2(CCN(c3ccccc3)C2)C1` | -32.51% | -5.499% |
| `Cc1c[nH]nc1C1CCN(C(=O)C2CCCC2)C1` (stereo not given) | - | 6.331% |
| `CC(=O)Cn1ncc(N2CCOCC2)cc1=O` | - | 5.628% |
| `Cc1cccc(CC(=O)N2CCCCC2CN)c1.Cl` (stereo not given) | 15.06% | 8.61% |
| `Cc1csc(CN2CCC[C@]3(C[C@H](Oc4ccccn4)CO3)C2)n1.O=C(O)C(F)(F)F.O=C(O)C(F)(F)F` | -23.09% | -3.087% |
| `Cc1nc(-c2ccccc2)sc1C(=O)NCCNc1ncccn1` | -1.486% | 6.34% |
| `CCOc1ccc(Cl)cc1C1CCCN1.Cl` (stereo not given) | 32.42% | -0.1508% |
| `CCn1ncc2c1NC(=O)CC2c1cnc(NCc2ccccc2)nc1` (stereo not given) | -14.19% | 2.456% |
| `CCn1cnnc1CNC(=O)c1ccc(Cl)cc1F` | 3.087% | -0.8436% |
| `CCOC(=O)c1nc(CN2CCN(C(=O)NC3CCCCC3)CC2)cs1` | -12.5% | -0.1517% |
| `Cc1nc(C(=O)Nc2cccnc2)c(C(C)C)s1` | 13.73% | -2.756% |
| `[H][C@]12CC[C@]([H])(CN(S(=O)(=O)N(C)C)C1)N(Cc1cccc(C#N)c1)C2` | -42.53% | 20.64% |
| `CC(=O)Nc1ccc2nc(-c3nccn3CCCN(C)C)ccc2c1` | -19.17% | -12.68% |
| `CCOCc1nc(N2CCOCC2)sc1C(=O)NCCCc1ccco1` | 13.65% | 7.461% |
| `CN1CCN(C(=O)C2CCN(c3cccnn3)CC2)CC1` | -20.3% | -13.26% |
| `Cc1cccc(NC(=O)CCNCc2c(C)nn(C)c2N(C)C)n1` | -26.12% | -1.154% |
| `CC(NCCCN1CCCC1=O)c1ccc(F)cc1N(C)C` (stereo not given) | -11.85% | 2.153% |
| `COC[C@]1(O)CCN(Cc2c[nH]c(CC3CCCC3)n2)CC1(C)C` | -66.16% | -2.93% |
| `O=C(c1ccc2[nH]cnc2c1)N1CCCC1Cn1cccn1` (stereo not given) | 2.56% | 14.09% |
| `CCN1C(=O)C(C)(C)c2cc(NC(=O)c3ccco3)ccc21` | 3.536% | 0.7107% |
| `Clc1cccc(Cl)c1CN(CCCN1CCOCC1)Cc1cccnc1` | - | 6.912% |
| `Cc1ncc(CO)c(CN2CCCC2c2nc3c(C)cccc3[nH]2)c1O` (stereo not given) | -16.28% | 7.226% |
| `Cc1cc(C(=O)N2CCN(c3ccncc3Cl)CC2)n(C)n1` | -12.19% | 20.74% |
| `CC(=O)NCC(=O)N1CCC2(CC1)CN(c1cccnc1)C(=O)CO2` | - | 0.6993% |
| `CN(C)c1cc(CNCc2ccc(N3CCOCC3)cc2)ccn1` | -5.126% | 3.611% |
| `CN1CCN(Cc2cnc3n2CCN(C(=O)c2ccoc2)C3)CC1` | -9.045% | -6.12% |
| `CC(=O)Nc1nc(CN2CCCC2Cn2cncn2)cs1` (stereo not given) | 3.686% | 4.976% |
| `O=C(O)C(F)(F)F.O=C(O)C(F)(F)F.O=C(O)C(F)(F)F.[H][C@@]12CO[C@@H](CN3CCN(C)CC3)[C@]1([H])CCN(Cc1ccc(C)s1)C2` | -62.5% | 35.28% |
| `COCCC1(CNC(=O)NCC2CCC2)CCC1` | -36.17% | -6.154% |
| `CCN(Cc1ccccc1)C1CCN(c2cc(C)nn2C)C1=O` (stereo not given) | -9.842% | -2.253% |
| `Cc1nnc2n1CCN(C(=O)CN1C(=O)CCCc3ccccc31)C2` | -53.51% | -0.1282% |
| `[H][C@@]12CS(=O)(=O)C[C@]1([H])N(C(=O)c1cc(C(C)C)no1)CCN2CC1CC1` | -27.03% | 14.96% |
| `CCC1CCCCN1S(=O)(=O)c1c(C)noc1C` (stereo not given) | -11.57% | 0.7992% |
| `O=C(O)C(F)(F)F.[H][C@]12CCC[C@@]1(COC)CN(C(=O)Cc1ccccn1)C2` | -37.72% | -6.719% |

2 of the entries, repeated:

SMILES	T. brucei	Toxoplasma
COCCC1(CNC(=O)NCC2CCC2)CCC1	-36.17%	-6.154%
COC[C@]1(O)CCN(Cc2c[nH]c(CC3CCCC3)n2)CC1(C)C	-66.16%	-2.93%